Results are given in words; binding and its absence hold for the method and conditions named. Binding seen in cells or lysates may run through a third protein. A yes stands for co-enrichment or nearness to the bait. Other partners may have been found. Where a sequence is shown, tags or fusion partners need not be part of it.
B1: EFHD1 (protein, UniProt Q9BUP0 1-239)
chain: MASEELACKLERRLRREEAEESGPQLAPLGAPAPEPKPEPEPPARAPTASADAELSAQLSRRLDINEGAARPRRCRVFNPYTEFPEFSRRLIKDLESMFKLYDAGRDGFIDLMELKLMMEKLGAPQTHLGLKSMIKEVDEDFDGKLSFREFLLIFHKAAAGELQEDSGLMALAKLSEIDVALEGVKGAKNFFEAKVQALSSASKFEAELKAEQDERKREEEERRLRQAAFQKLKANFNT
B2: MYL12A (protein, UniProt P19105 1-171)
chain: MSSKRTKTKTKKRPQRATSNVFAMFDQSQIQEFKEAFNMIDQNRDGFIDKEDLHDMLASLGKNPTDEYLDAMMNEAPGPINFTMFLTMFGEKLNGTDPEDVIRNAFACFDEEATGTIQEDYLRELLTTMGDRFTDEEVDELYREAPIDKKGNFNYIEFTRILKHGAKDKDD
B3: SEPT2 (protein, UniProt Q15019 1-361)
chain: MSKQQPTQFINPETPGYVGFANLPNQVHRKSVKKGFEFTLMVVGESGLGKSTLINSLFLTDLYPERVIPGAAEKIERTVQIEASTVEIEERGVKLRLTVVDTPGYGDAINCRDCFKTIISYIDEQFERYLHDESGLNRRHIIDNRVHCCFYFISPFGHGLKPLDVAFMKAIHNKVNIVPVIAKADTLTLKERERLKKRILDEIEEHNIKIYHLPDAESDEDEDFKEQTRLLKASIPFSVVGSNQLIEAKGKKVRGRLYPWGVVEVENPEHNDFLKLRTMLITHMQDLQEVTQDLHYENFRSERLKRGGRKVENEDMNKDQILLEKEAELRRMQEMIARMQAQMQMQMQGGDGDGGALGHHV
B4: SORBS1/CAP (protein, UniProt Q9BX66 1-1292)
chain: MSSECDGGSKAVMNGLAPGSNGQDKATADPLRARSISAVKIIPVKTVKNASGLVLPTDMDLTKICTGKGAVTLRASSSYRETPSSSPASPQETRQHESKPGLEPEPSSADEWRLSSSADANGNAQPSSLAAKGYRSVHPNLPSDKSQDATSSSAAQPEVIVVPLYLVNTDRGQEGTARPPTPLGPLGCVPTIPATASAASPLTFPTLDDFIPPHLQRWPHHSQPARASGSFAPISQTPPSFSPPPPLVPPAPEDLRRVSEPDLTGAVSSTDSSPLLNEVSSSLIGTDSQAFPSVSKPSSAYPSTTIVNPTIVLLQHNREQQKRLSSLSDPVSERRVGEQDSAPTQEKPTSPGKAIEKRAKDDSRRVVKSTQDLSDVSMDEVGIPLRNTERSKDWYKTMFKQIHKLNRDTPEENPYFPTYKFPELPEIQQTSEEDNPYTPTYQFPASTPSPKSEDDDSDLYSPRYSFSEDTKSPLSVPRSKSEMSYIDGEKVVKRSATLPLPARSSSLKSSSERNDWEPPDKKVDTRKYRAEPKSIYEYQPGKSSVLTNEKMSRDISPEEIDLKNEPWYKFFSELEFGKPPPKKIWDYTPGDCSILPREDRKTNLDKDLSLCQTELEADLEKMETLNKAPSANVPQSSAISPTPEISSETPGYIYSSNFHAVKRESDGAPGDLTSLENERQIYKSVLEGGDIPLQGLSGLKRPSSSASTKDSESPRHFIPADYLESTEEFIRRRHDDKEKLLADQRRLKREQEEADIAARRHTGVIPTHHQFITNERFGDLLNIDDTAKRKSGSEMRPARAKFDFKAQTLKELPLQKGDIVYIYKQIDQNWYEGEHHGRVGIFPRTYIELLPPAEKAQPKKLTPVQVLEYGEAIAKFNFNGDTQVEMSFRKGERITLLRQVDENWYEGRIPGTSRQGIFPITYVDVIKRPLVKNPVDYMDLPFSSSPSRSATASPQFSSHSKLITPAPSSLPHSRRALSPEMHAVTSEWISLTVGVPGRRSLALTPPLPPLPEASIYNTDHLALSPRASPSLSLSLPHLSWSDRPTPRSVASPLALPSPHKTYSLAPTSQASLHMNGDGGVHTPSSGIHQDSFLQLPLGSSDSVISQLSDAFSSQSKRQPWREESGQYERKAERGAGERGPGGPKISKKSCLKPSDVVRCLSTEQRLSDLNTPEESRPGKPLGSAFPGSEAEQTERHRGGEQAGRKAARRGGSQQPQAQQRRVTPDRSQTSQDLFSYQALYSYIPQNDDELELRDGDIVDVMEKCDDGWFVGTSRRTKQFGTFPGNYVKPLYL
B5: TP53BP2 (protein, UniProt Q13625 1-1128)
chain: MMPMFLTVYLSNNEQHFTEVPVTPETICRDVVDLCKEPGESDCHLAEVWCGSERPVADNERMFDVLQRFGSQRNEVRFFLRHERPPGRDIVSGPRSQDPSLKRNGVKVPGEYRRKENGVNSPRMDLTLAELQEMASRQQQQIEAQQQLLATKEQRLKFLKQQDQRQQQQVAEQEKLKRLKEIAENQEAKLKKVRALKGHVEQKRLSNGKLVEEIEQMNNLFQQKQRELVLAVSKVEELTRQLEMLKNGRIDSHHDNQSAVAELDRLYKELQLRNKLNQEQNAKLQQQRECLNKRNSEVAVMDKRVNELRDRLWKKKAALQQKENLPVSSDGNLPQQAASAPSRVAAVGPYIQSSTMPRMPSRPELLVKPALPDGSLVIQASEGPMKIQTLPNMRSGAASQTKGSKIHPVGPDWSPSNADLFPSQGSASVPQSTGNALDQVDDGEVPLREKEKKVRPFSMFDAVDQSNAPPSFGTLRKNQSSEDILRDAQVANKNVAKVPPPVPTKPKQINLPYFGQTNQPPSDIKPDGSSQQLSTVVPSMGTKPKPAGQQPRVLLSPSIPSVGQDQTLSPGSKQESPPAAAVRPFTPQPSKDTLLPPFRKPQTVAASSIYSMYTQQQAPGKNFQQAVQSALTKTHTRGPHFSSVYGKPVIAAAQNQQQHPENIYSNSQGKPGSPEPETEPVSSVQENHENERIPRPLSPTKLLPFLSNPYRNQSDADLEALRKKLSNAPRPLKKRSSITEPEGPNGPNIQKLLYQRTTIAAMETISVPSYPSKSASVTASSESPVEIQNPYLHVEPEKEVVSLVPESLSPEDVGNASTENSDMPAPSPGLDYEPEGVPDNSPNLQNNPEEPNPEAPHVLDVYLEEYPPYPPPPYPSGEPEGPGEDSVSMRPPEITGQVSLPPGKRTNLRKTGSERIAHGMRVKFNPLALLLDSSLEGEFDLVQRIIYEVDDPSLPNDEGITALHNAVCAGHTEIVKFLVQFGVNVNAADSDGWTPLHCAASCNNVQVCKFLVESGAAVFAMTYSDMQTAADKCEEMEEGYTQCSQFLYGVQEKMGIMNKGVIYALWDYEPQNDDELPMKEGDCMTIIHREDEDEIEWWWARLNDKEGYVPRNLLGLYPRIKPRQRSLA
B6: MAP7D3 (protein, UniProt Q8IWC1 1-876)
chain: MMADGAAAGAGGSPSLRELRARMVAAANEIAKERRKQDVVNRVATHSSNIRSTFKPVIDGSMLKNDIKQRLARERREEKRRQQDANKETQLLEKERKTKLQYEKQMEERQRKLKERKEKEEQRRIAAEEKRHQKDEAQKEKFTAILYRTLERRRLADDYQQKRWSWGGSAMANSESKTANKRSASTEKLEQGTSALIRQMPLSSAGLQNSVAKRKTDKERSSSLNRRDSNLHSSTDKEQAERKPRVTGVTNYVMQYVTVPLRKCTSDELRAVMFPMSTMKIPPQTKVEESPLEKVETPPKASVDAPPQVNVEVFCNTSMEASPKAGVGMAPEVSTDSFPVVSVDVSPVVSTYDSEMSMDASPELSIEALPKVDLETVPKVSIVASPEASLEAPPEVSLEALPEVSVEAAPEGSLEAPPKGSAEVAPKESVKGSPKESMEASPEAMVKASPKTSLEASMEASPKAKARDAPKKSEMDKQALIPIAKKRLSSYTECYKWSSSPENACGLPSPISTNRQIQKNCPPSPLPLISKQSPQTSFPYKIMPIQHTLSVQSASSTVKKKKETVSKTTNRCEALSQRHMIYEESGNKSTAGIMNAEAATKILTELRRLAREQREKEEEERQREEMQQRVIKKSKDMAKEAVGGQAEDHLKLKDGQQQNETKKKKGWLDQEDQEAPLQKGDAKIKAQEEADKRKKEHERIMLQNLQERLERKKRIEEIMKRTRKTDVNASKVTETSSHDIYEEAEADNEESDKDSLNEMFPSAILNGTGSPTKFKMPFNNAKKMTHKLVFLEDGTSQVRKEPKTYFNGDLKNFRQKSMKDTSIQEVVSRPSSKRMTSHTTKTRKADETNTTSRSSAQTKSEGFHDILPKSSDTFRQ

Protein sequences, listed by entry. Tags and fused reporters are not part of them.
UniProt P60660: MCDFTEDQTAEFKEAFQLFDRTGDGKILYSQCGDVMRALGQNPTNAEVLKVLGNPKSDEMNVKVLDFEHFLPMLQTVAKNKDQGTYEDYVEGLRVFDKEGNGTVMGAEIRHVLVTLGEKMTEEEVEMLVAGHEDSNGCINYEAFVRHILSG
UniProt P14649: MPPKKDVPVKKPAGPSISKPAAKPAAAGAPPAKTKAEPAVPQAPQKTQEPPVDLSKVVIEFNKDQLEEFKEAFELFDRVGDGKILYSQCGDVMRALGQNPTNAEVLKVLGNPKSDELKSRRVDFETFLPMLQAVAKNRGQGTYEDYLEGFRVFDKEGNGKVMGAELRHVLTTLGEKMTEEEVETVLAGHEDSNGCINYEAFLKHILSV
UniProt P08590: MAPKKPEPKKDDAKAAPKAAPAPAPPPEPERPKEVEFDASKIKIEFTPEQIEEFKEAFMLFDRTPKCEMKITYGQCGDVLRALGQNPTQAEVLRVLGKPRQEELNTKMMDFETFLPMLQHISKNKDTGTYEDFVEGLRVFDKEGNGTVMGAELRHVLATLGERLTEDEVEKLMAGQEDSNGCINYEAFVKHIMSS
UniProt Q9UHB6: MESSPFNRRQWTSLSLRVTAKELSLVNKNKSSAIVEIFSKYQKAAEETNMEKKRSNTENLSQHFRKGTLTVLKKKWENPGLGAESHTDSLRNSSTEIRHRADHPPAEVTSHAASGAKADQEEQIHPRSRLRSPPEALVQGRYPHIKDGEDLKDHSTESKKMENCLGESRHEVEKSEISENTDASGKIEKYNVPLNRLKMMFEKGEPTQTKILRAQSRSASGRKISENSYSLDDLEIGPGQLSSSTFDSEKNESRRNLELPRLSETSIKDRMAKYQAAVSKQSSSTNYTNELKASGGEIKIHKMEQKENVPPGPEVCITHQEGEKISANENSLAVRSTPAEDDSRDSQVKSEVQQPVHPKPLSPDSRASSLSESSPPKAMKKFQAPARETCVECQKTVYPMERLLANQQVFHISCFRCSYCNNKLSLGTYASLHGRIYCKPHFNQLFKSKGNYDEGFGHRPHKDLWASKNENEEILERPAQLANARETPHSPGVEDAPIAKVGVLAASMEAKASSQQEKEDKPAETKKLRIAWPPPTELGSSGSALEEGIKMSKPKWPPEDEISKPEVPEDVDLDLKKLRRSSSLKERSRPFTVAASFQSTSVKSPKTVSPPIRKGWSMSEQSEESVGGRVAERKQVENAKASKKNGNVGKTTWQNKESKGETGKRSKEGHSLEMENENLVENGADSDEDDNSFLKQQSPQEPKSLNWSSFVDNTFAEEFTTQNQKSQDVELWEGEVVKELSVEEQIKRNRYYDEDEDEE
UniProt P21333: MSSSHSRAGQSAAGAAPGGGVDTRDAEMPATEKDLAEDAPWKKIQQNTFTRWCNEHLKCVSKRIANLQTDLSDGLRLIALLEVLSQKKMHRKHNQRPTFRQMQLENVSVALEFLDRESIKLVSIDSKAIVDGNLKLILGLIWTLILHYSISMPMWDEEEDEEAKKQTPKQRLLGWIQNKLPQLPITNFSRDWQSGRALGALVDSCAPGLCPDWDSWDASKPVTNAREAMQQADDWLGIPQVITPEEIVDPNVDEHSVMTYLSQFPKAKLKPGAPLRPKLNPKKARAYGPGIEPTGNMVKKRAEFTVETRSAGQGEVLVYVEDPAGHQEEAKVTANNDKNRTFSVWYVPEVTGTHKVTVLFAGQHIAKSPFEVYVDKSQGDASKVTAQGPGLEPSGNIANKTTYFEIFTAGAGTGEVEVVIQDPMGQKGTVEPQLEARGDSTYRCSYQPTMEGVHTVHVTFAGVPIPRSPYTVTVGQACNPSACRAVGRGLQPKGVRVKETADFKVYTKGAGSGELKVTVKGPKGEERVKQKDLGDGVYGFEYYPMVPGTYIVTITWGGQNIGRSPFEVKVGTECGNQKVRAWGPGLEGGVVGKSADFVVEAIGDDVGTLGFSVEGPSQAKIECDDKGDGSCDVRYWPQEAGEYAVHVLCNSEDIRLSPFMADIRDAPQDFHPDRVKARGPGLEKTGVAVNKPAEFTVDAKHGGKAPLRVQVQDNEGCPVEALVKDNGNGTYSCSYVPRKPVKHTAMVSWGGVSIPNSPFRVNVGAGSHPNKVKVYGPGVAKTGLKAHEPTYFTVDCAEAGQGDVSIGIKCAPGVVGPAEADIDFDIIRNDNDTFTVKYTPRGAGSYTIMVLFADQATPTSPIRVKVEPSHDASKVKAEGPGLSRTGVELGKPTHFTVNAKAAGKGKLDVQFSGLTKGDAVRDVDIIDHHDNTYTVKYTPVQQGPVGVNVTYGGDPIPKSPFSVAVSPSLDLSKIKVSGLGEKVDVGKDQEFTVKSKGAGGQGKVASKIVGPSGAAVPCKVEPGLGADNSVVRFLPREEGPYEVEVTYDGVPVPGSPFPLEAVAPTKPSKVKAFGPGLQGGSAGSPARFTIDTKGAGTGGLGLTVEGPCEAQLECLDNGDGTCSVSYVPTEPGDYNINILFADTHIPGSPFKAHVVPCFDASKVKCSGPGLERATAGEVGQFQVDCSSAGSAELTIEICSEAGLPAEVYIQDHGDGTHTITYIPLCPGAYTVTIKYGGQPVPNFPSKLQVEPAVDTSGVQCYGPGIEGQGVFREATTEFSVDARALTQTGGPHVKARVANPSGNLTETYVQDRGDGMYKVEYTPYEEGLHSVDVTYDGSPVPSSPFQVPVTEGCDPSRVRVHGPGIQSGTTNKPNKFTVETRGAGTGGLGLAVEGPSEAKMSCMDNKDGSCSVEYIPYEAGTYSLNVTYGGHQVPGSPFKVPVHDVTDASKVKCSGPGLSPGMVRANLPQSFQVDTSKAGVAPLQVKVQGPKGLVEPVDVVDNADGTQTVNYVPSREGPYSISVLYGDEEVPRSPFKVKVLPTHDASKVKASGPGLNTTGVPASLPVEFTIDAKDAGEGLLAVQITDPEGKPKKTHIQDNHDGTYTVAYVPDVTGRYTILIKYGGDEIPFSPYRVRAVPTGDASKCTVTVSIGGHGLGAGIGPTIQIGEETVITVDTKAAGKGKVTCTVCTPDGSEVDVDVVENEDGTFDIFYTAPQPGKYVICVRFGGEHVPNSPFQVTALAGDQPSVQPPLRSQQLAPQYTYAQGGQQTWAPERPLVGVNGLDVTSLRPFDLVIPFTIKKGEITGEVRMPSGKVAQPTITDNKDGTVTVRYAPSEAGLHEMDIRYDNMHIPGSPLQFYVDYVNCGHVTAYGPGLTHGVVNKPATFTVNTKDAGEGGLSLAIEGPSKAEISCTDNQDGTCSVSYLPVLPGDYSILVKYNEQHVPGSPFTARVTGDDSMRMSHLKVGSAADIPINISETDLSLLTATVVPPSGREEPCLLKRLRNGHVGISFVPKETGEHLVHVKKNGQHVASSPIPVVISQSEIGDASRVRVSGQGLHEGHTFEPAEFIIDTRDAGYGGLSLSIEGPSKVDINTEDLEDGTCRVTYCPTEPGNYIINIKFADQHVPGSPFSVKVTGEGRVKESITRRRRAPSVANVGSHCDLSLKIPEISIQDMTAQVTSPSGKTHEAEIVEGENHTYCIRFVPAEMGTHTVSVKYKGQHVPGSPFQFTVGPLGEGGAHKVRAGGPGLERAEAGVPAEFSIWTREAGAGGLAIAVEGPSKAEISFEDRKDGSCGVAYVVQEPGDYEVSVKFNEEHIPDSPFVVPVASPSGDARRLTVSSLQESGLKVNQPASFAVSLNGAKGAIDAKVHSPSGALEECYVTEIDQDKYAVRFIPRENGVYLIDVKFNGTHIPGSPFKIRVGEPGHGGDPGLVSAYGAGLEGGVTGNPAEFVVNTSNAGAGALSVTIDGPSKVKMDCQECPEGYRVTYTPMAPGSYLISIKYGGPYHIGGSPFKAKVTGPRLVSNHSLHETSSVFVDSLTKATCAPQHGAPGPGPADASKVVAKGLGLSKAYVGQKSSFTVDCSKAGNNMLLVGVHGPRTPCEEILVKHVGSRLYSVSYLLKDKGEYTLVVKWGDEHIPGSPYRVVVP
UniProt O75369: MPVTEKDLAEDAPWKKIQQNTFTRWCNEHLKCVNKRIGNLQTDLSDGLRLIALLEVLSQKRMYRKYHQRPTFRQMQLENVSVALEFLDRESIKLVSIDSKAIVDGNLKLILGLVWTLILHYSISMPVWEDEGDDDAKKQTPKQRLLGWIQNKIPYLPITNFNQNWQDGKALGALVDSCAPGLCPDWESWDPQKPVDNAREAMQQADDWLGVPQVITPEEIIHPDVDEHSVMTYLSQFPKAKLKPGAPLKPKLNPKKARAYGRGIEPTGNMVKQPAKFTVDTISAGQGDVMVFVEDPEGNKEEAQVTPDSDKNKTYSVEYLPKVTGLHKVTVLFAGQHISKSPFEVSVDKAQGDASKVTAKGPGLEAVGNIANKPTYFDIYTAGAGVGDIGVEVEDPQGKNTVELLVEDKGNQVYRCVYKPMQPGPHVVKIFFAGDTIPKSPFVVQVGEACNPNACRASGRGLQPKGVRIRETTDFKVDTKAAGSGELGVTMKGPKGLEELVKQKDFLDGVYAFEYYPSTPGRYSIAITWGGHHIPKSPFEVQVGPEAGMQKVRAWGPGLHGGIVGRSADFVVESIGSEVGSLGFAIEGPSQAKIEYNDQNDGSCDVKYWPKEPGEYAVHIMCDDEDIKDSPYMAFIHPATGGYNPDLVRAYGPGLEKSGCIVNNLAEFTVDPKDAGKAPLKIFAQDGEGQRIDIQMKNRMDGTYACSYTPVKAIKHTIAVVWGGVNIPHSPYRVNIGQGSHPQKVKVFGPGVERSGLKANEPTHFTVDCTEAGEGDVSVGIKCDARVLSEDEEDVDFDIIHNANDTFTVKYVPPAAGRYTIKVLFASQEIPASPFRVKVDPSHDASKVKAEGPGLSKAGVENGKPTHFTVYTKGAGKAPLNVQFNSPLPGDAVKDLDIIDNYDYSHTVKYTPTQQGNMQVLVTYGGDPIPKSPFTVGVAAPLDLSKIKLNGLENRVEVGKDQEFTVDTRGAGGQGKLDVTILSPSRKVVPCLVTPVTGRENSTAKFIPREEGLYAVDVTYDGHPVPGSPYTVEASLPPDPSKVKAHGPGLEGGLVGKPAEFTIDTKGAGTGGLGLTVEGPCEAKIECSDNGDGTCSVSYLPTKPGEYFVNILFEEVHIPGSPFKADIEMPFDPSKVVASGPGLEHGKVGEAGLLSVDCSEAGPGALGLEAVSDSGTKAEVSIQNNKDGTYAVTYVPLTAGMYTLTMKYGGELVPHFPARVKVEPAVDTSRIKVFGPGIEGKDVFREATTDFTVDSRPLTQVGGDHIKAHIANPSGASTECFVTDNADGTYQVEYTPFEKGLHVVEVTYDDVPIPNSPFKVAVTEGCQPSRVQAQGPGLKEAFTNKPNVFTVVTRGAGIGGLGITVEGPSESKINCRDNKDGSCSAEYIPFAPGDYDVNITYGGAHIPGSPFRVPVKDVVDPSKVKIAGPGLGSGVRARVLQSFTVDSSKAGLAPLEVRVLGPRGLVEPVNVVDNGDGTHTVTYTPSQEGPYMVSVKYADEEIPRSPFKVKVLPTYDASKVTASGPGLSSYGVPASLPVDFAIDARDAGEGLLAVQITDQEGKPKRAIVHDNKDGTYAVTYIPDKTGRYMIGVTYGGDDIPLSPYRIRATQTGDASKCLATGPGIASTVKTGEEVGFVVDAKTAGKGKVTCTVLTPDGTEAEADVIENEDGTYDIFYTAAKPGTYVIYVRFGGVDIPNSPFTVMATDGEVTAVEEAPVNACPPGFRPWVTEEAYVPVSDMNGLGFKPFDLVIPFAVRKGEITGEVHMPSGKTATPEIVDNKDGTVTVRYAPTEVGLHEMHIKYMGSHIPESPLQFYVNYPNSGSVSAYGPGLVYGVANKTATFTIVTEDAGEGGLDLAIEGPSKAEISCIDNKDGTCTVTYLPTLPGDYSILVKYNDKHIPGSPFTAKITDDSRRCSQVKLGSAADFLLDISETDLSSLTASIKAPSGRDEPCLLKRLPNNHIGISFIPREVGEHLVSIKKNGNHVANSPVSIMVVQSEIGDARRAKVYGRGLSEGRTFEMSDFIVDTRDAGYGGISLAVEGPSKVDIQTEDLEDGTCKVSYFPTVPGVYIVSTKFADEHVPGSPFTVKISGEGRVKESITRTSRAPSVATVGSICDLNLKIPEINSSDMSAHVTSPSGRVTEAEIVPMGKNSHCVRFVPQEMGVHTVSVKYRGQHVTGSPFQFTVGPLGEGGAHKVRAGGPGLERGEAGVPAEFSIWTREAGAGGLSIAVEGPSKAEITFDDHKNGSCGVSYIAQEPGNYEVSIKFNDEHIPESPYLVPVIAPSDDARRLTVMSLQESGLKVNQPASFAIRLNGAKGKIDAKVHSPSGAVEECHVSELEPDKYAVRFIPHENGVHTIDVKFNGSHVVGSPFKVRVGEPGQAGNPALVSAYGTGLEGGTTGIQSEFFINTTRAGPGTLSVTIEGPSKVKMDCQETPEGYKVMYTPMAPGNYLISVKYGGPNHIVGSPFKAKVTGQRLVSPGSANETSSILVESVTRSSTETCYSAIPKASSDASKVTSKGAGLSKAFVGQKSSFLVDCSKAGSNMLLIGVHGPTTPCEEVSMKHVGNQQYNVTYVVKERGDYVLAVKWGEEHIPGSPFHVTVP

Target: T1, FLAG-BirA*-tagged LUZP1 (human) (UniProt Q86V48)
T1 sequence: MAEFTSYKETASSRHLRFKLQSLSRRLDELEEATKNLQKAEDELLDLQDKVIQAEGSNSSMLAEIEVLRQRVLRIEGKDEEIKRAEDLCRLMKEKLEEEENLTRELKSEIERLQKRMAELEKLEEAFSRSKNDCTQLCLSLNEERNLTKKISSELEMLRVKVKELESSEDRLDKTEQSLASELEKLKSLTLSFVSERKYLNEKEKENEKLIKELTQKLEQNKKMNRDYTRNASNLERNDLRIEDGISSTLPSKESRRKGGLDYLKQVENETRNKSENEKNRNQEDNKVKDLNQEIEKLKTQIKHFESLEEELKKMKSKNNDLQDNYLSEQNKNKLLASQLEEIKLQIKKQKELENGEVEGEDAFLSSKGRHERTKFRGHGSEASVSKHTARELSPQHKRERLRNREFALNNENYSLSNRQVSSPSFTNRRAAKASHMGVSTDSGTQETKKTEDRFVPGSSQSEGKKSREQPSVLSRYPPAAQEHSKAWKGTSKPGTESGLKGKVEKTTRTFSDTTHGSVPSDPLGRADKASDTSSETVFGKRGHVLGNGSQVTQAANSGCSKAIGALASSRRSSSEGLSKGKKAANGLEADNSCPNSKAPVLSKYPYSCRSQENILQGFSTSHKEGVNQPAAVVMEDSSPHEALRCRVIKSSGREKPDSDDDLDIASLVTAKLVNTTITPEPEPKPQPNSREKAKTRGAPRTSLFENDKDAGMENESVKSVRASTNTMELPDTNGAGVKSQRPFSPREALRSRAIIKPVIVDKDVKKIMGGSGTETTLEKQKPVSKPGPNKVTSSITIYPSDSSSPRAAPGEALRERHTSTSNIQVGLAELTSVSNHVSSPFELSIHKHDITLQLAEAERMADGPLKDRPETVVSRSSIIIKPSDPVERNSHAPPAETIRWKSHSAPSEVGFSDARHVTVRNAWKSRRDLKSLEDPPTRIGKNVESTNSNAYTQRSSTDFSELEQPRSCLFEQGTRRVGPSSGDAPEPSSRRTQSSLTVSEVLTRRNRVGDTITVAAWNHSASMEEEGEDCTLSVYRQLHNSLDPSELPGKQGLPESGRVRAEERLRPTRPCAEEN
Experiment: proximity labelling

Molecule	binding
MYL6 (from UniProt P60660 1-151)	binds
MYL6B (from UniProt P14649 1-208)	binds
MYL12B (from UniProt O14950 1-172)	binds
MYL3 (from UniProt P08590 1-195)	binds
EPLIN/LIMA1 (from UniProt Q9UHB6 1-759)	binds
PCM1 (from UniProt Q15154 1-2024)	binds
TJP1 (from UniProt Q07157 1-1748)	binds
FLNA (from UniProt P21333 1-2647)	binds
FLNB (from UniProt O75369 1-2602)	binds
PPP1CA (from UniProt P62136 1-330)	binds
B1	binds
B2	binds
B3	binds
B4	binds
B5	binds
B6	binds
